Assay results taken from PubChem BioAssay AID206 (DTP/NCI, 2004).
The list shows only some results of the screen, not a fair sample: it gathers tests that were run many times, whatever their T/C, doses with no T/C, and many T/C values between a quarter and a half above the control. Further doses and runs are listed elsewhere. T/C is the treated group as % of the vehicle group. Schedules are NCI's codes, read here as Q, the interval in days (D) or hours (H), X, the number of doses. Some entries give survivors of the animals treated and no T/C: the source files T/C as zero there, which appears to mark a toxic dose or a test without result, not a measured value. Counts of survivors are from the toxicity check (mostly the fifth day) where no day follows; animals may have died later. Some doses were run more than once; their values stand side by side, smallest first.

Test system: nude mice, HT29 intrarenal xenograft, tumor weight T/C
Assay: NCI In Vivo Anticancer Drug Screen. Data for tumor model HT29;CX-1 Human Adenocarcinoma (MER+) (intrarenal inoculation) in NU/NU Swiss (nude) mice
Conditions: T/C endpoint: mean tumor weight change, higher T/C = larger tumour
Procedure, shortened: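 Tumor-bearing mice received test compound or vehicle, and tumor size or survival was recorded. Values are the treated-group measurement divided by the vehicle-treated control measurement.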

Q: With `c1csc(C[N+]23CN4CN(CN(C4)C2)C3)c1` as the molecule, how does the survivor count (dose: 800.0 mg/kg/injection, schedule: Q04DX004 (sc), vehicle: saline) read?
A: Its survivor count is 0 of 6 on day 15.

Q: How did the T/C (dose: 50.0 mg/kg/injection, schedule: Q01DX010 (sc), vehicle: saline with Tween-80, evaluated on day 11) turn out when `O=C(N/N=C\c1cc(Br)cc(Br)c1O)N/N=C/c1cc(Br)cc(Br)c1O` was run?
A: The T/C was 128 % of control.

Q: How did the T/C (dose: 300.0 mg/kg/injection, schedule: Q04DX004 (sc), vehicle: saline with Tween-80, evaluated on day 15) turn out when `Cc1cc(O)c(N=Nc2ccc(C(=O)O)cc2)cc1C` was run?
A: Its T/C is 128 % of control.

Q: What about the T/C (dose: 1200.0 mg/kg/injection, schedule: Q04DX004 (sc), vehicle: saline with Tween-80, evaluated on day 15) of the same molecule?
A: Its T/C is 135 % of control.

Q: What does the source list for `C[n+]1ccc(Nc2ccc(NC(=O)c3ccc(Nc4cc[n+](C)c5ccc(N)cc45)cc3)cc2)cc1`?
A: survivor count (dose: 64.0 mg/kg/injection, schedule: Q04DX004 (sc), vehicle: distilled water + Tween-80): 2 of 6 on day 15; survivor count (dose: 100.0 mg/kg/injection, schedule: Q04DX004 (sc), vehicle: distilled water + Tween-80): 1 of 6 on day 15; survivor count (dose: 200.0 mg/kg/injection, schedule: Q04DX004 (sc), vehicle: distilled water + Tween-80): 0 of 6 on day 15

Q: With `Oc1ccccc1C=NCCC[N-]CCCN=Cc1ccccc1O.[Co]` as the molecule, how does the survivor count (dose: 200.0 mg/kg/injection, schedule: Q01DX010 (sc), vehicle: suspension in saline) read?
A: Its survivor count is 0 of 3 on day 20.

Q: What does the source list for `N=c1ccn2c(n1)OC1C(O)C(CO)OC12` (configuration not stated)?
A: survivor count (dose: 2400.0 mg/kg/injection, schedule: Q04DX004 (sc), vehicle: saline): 3 of 6 on day 15; survivor count (dose: 3200.0 mg/kg/injection, schedule: Q04DX004 (sc), vehicle: saline): 0 of 6 on day 15

Q: `Clc1cc(Cl)c(C[N+]23CN4CN(CN(C4)C2)C3)cc1Cl` was tested. Which survivor count (dose: 300.0 mg/kg/injection, schedule: Q04DX004 (sc), vehicle: saline with Tween-80) did it give?
A: Its survivor count is 0 of 5 on day 15.

Q: How did the survivor count (dose: 600.0 mg/kg/injection, schedule: Q04DX004 (sc), vehicle: Klucel (hydroxypropylcellulose) (HPC)) turn out when `Cc1cc(N2C(=O)CCSC2=S)ccc1Cl` was run?
A: The survivor count was 1 of 6 on day 15.

Q: `O=C1NCC(Br)C(=O)N1` (configuration not stated) was tested. Which survivor count (dose: 1200.0 mg/kg/injection, schedule: Q04DX004 (sc), vehicle: saline with Tween-80) did it give?
A: Its survivor count is 0 of 6 on day 15.

Q: `COc1cccc2c1C(=O)c1c(O)c3c(c(O)c1C2=O)C[C@@](O)(/C(CO)=N/NC(=O)c1ccc(Cl)c(Cl)c1)C[C@@H]3OC1CC(N)C(O)C(C)O1` (some centres not stated) was tested. Which survivor count (dose: 16.0 mg/kg/injection, schedule: Q01DX010 (sc), vehicle: water) did it give?
A: Its survivor count is 1 of 2 on day 20.

Q: And the survivor count (dose: 32.0 mg/kg/injection, schedule: Q01DX010 (sc), vehicle: water)?
A: The survivor count was 0 of 3 on day 20.

Q: And the survivor count (dose: 80.0 mg/kg/injection, schedule: Q04DX004 (sc), vehicle: water)?
A: The survivor count was 1 of 3 on day 15.

Q: What about the survivor count (dose: 160.0 mg/kg/injection, schedule: Q04DX004 (sc), vehicle: water) of the same molecule?
A: The survivor count was 1 of 3 on day 15.

Q: For `NC(=O)c1[nH]nc(C2OC(CO)C(O)C2O)c1O` (configuration not stated), which survivor count (dose: 20.0 mg/kg/injection, schedule: Q04DX004 (sc), vehicle: saline) is on record?
A: Its survivor count is 1 of 6 on day 15.

Q: What about the survivor count (dose: 40.0 mg/kg/injection, schedule: Q04DX004 (sc), vehicle: saline) of the same molecule?
A: Its survivor count is 0 of 6 on day 15.

Q: And the survivor count (dose: 80.0 mg/kg/injection, schedule: Q04DX004 (sc), vehicle: saline)?
A: The survivor count was 0 of 6 on day 15.

Q: Which survivor count (dose: 300.0 mg/kg/injection, schedule: Q04DX004 (sc), vehicle: saline) does the source give for `O=C1C(O)=C(c2ccccc2)C(=O)C(O)=C1c1ccccc1` here?
A: The survivor count was 3 of 6 on day 15.

Q: And the survivor count (dose: 600.0 mg/kg/injection, schedule: Q04DX004 (sc), vehicle: saline)?
A: Its survivor count is 0 of 6 on day 15.

Q: Which results are given for `ClCCCN1CCN(CCCCl)CC1`?
A: survivor count (dose: 250.0 mg/kg/injection, schedule: Q04DX004 (sc), vehicle: distilled water + alcohol): 3 of 6 on day 15; survivor count (dose: 500.0 mg/kg/injection, schedule: Q04DX004 (sc), vehicle: distilled water + alcohol): 0 of 6 on day 15

Q: `COC1=C(NC(C)=O)C(=O)c2nc(-c3nc(C(=O)O)c(C)c(-c4ccc(OC)c(OC)c4O)c3N)ccc2C1=O` was tested. Which survivor count (dose: 400.0 mg/kg/injection, schedule: Q04DX004 (sc), vehicle: Klucel (hydroxypropylcellulose) (HPC)) did it give?
A: Its survivor count is 1 of 6 on day 15, 2 of 6 on day 15, 3 of 6 on day 15.

Q: Which results are given for `COC1CC(CC2CCC(C)C(C(C)C(=O)O)O2)OC2(OC(C)(C3CCC(C)(C4OC(C5OC(O)(CO)C(C)CC5C)CC4C)O3)CC2C)C1C` (configuration not stated)?
A: survivor count (dose: 15.0 mg/kg/injection, schedule: Q04DX004 (sc), vehicle: Klucel (hydroxypropylcellulose) (HPC)): 3 of 6 on day 15; survivor count (dose: 30.0 mg/kg/injection, schedule: Q04DX004 (sc), vehicle: Klucel (hydroxypropylcellulose) (HPC)): 1 of 6 on day 15
